No constants are given. Whether binding was seen depends on the method and setting. In cells and extracts the contact can be indirect. Some binding calls cover weakened binding; strength is not graded here. Sequences can lack the tags named with a protein.
B1: DEK isoform-1 (full-length DEK), Flag- or Myc-tagged, P35659-1 1-375 (protein)
chain: MSASAPAAEGEGTPTQPASEKEPEMPGPREESEEEEDEDDEEEEEEEKEKSLIVEGKREKKKVERLTMQVSSLQREPFTIAQGKGQKLCEIERIHFFLSKKKTDELRNLHKLLYNRPGTVSSLKKNVGQFSGFPFEKGSVQYKKKEEMLKKFRNAMLKSICEVLDLERSGVNSELVKRILNFLMHPKPSGKPLPKSKKTCSKGSKKERNSSGMARKAKRTKCPEILSDESSSDEDEKKNKEESSDDEDKESEEEPPKKTAKREKPKQKATSKSKKSVKSANVKKADSSTTKKNQNSSKKESESEDSSDDEPLIKKLKKPPTDEELKETIKKLLASANLEEVTMKQICKKVYENYPTYDLTERKDFIKTTVKELIS
B2: DEK isoform-1 (full-length DEK), Flag- or Myc-tagged (protein, UniProt P35659-1 1-375)
chain: B1 chain
B3: DEK isoform-2 (short isoform of DEK lacking residues 49-82), Flag- or Myc-tagged (protein, UniProt P35659-2 1-341)
chain: MSASAPAAEGEGTPTQPASEKEPEMPGPREESEEEEDEDDEEEEEEEKGKGQKLCEIERIHFFLSKKKTDELRNLHKLLYNRPGTVSSLKKNVGQFSGFPFEKGSVQYKKKEEMLKKFRNAMLKSICEVLDLERSGVNSELVKRILNFLMHPKPSGKPLPKSKKTCSKGSKKERNSSGMARKAKRTKCPEILSDESSSDEDEKKNKEESSDDEDKESEEEPPKKTAKREKPKQKATSKSKKSVKSANVKKADSSTTKKNQNSSKKESESEDSSDDEPLIKKLKKPPTDEELKETIKKLLASANLEEVTMKQICKKVYENYPTYDLTERKDFIKTTVKELIS

Key:
[1] = biological target: T1, DEK isoform-1 (full-length DEK), Flag- or Myc-tagged (human), P35659; experiment: co-IP; 293T cells co-transfected with alternatively tagged isoforms (Flag and Myc); Universal Magnetic Co-IP Kit (Active Motif), 2 μg anti-Flag M2 antibody; anti-Flag and anti-Myc antibodies used; settings: remark: other sources report otherwise
T1 chain: B1 chain

[2] = biological target: T2, DEK isoform-2 (short isoform of DEK lacking residues 49-82), Flag- or Myc-tagged (human) (UniProt P35659); experiment: as above
T2 sequence: B3 chain

| Binder | binding [1] | binding [2] |
| --- | --- | --- |
| B1 | binds | – |
| B2 | – | binds weakly |
| B3 | – | no binding |
